# According to PubChem BioAssay AID493014 (National Center for Advancing Translational Sciences (NCATS), 2011):
# “And” between values parts separate entries of the source, which are not always exact repeats. Equal entries are not always repeated. This is one part of the list. Further columns of the screen follow, without active or inactive calls. Compounds called inactive in the main read-out are mostly missing here. The note in brackets gives the kind of curve behind each potency; many fits are weak.
# Assay: qHTS Assay to Find Inhibitors of Chronic Active B-Cell Receptor Signaling
# Conditions: ABC-DLBCL IkBa-CBG/CBR reporter, luminescence ratio (green luciferase fused to IkBa over red control in TMD8 lymphoma cells), 4 h
# Excerpt: NIH Molecular Libraries Probe Production Network [MLPCN] NIH Chemical Genomics Center [NCGC] MLPCN Grant: 1 R03 DA031086-01A1 PI Name: Dr. R. Eric Davis NCGC Assay Overview: Diffuse large B-cell lymphoma (DLBCL) is the most common category of non-Hodgkin lymphoma, with ~20,000 new cases per year in the United States. DLBCL should be regarded as a collection of different neoplasms. Microarray gene expression analysis has defined two principal types of DLBCL, named for their similarity to normal B cell stages or activation states: a germinal center B-cell (GCB) type, and an activated B-cell (ABC) type. In ABC-DLBCL, a constitutive high-level activity of the NF-kappaB family of transcription factors has been observed (1) and NF-kappaB target genes are more highly expressed in ABC primary tumors than in GCB tumors. Functional studies have shown a constitutive high-level activity of the IkappaB (inhibitor of kappa-B) kinase (IKK) complex. […] Further analysis of DLBCL primary tumors for NF-kappaB target gene expression imply that although CARD11 is required for constitutive IKK activity in all ABC-DLBCL lines, mutations in CARD11 may be the root cause of IKK activation only in lines or tumors with such mutations. In other words, CARD11 mutations may explain NF-kappaB activation in only 10% of ABC-DLBCL cases. […] This process has been termed 'chronic active BCR signaling' (CABS). The goal of this screen is to find small-molecule inhibitors of the CABS pathway found in ABC-DLBCL lines using a cell-based assay that measures IkappaBalpa stability, which has already been extensively validated in the OCI-Ly3 line (PubChem AID:445; REF: 4). […] The assay uses green (CBG68) and red (CBR) emitting beetle luciferases [Chroma-GloTM developed by Promega Corp.] where the green luciferase is fused to IkappaBalpha and the red luciferase is present in its native state. Both luciferase genes are stably present in the TMD8 human ABC DLBCL cell line, but their expression is under the control of tetracycline-inducible promoters. Following the addition of doxycycline to induce expression of the luciferases, the green luminescence in control cultures rises only slowly because the CBG fusion partner IkappaBalpha is targeted by IKK activity for rapid degradation. In contrast, green luminescence rises rapidly in the presence of proteasome inhibitors or IKK inhibitors. The rise in red luminescence of CBR is not affected by proteasome or IKK inhibitors, and serves as normalization for cell number and nonspecific effects. Compounds were screened as a concentration-titration series that ranged from 46 uM to 3 nM.
# NCGC Assay Protocol Summary: Cells were seeded in 1536-well plates at 5000 cells/4uL in IMDM medium containing 0.5% FBS, w/o phenol red, 1% penicillin/streptomycin. Then, 23 nL of compounds or DMSO were delivered to each well using a pin tool. One uL 20ng/ml doxycycline was then dispensed into white solid 1536-well plates and the plates were incubated at 37C/5% C02 in a cell incubator for 4 hrs. Then 4 uL luminescent substrate mix (in-house prepared: 150 mM Tris-Cl, pH 7.6, 3 mM MgCl2, 1% Triton X-100, 5 mM DTT, 0.2 mM CoA, 0.15 mM ATP, 5 mM D-luciferin, final concentrations) was added to each well. The plate was incubated at r.t. for 10-15 min. The plates were measured on a ViewLux plate reader for green luminescence (540/20 nm filter) and red luminescence (618/8 nm filter). The green and red luminescent signals were corrected for red and green luminescence filter overlap using previously determined filter calibration constants (determined using the procedure outlined in the Promega Technical Manual; REF 4). The %Activity was determined from the ratio of corrected green/red luminescent values. MG132 were used as control. […] Red luminescent %Activity was normalized to the difference between red luminesence in basal cells (0%Activity) and zero luminescence (-100% Activity). […]
# [1] = measured here: CBR red luminescence, cell number
# [2] = measured here: IkBa-CBG green luminescence
Compound,AC50 [1],AC50 [2]
CCOc1ccc(N(CC(=O)Nc2cccc(F)c2)S(=O)(=O)c2c(C)noc2C)cc1,"25.1 µM [falling, single point]",
O=C(Nc1cccc(Cl)c1)Nc1ccc2c(c1)C(=O)OC2,"7.31 µM [rising, partial curve, poor fit]",
Cc1c(NC(=O)CSc2ccc3ccccc3n2)c(=O)n(-c2ccccc2)n1C,"29.1 µM [rising, single point]",
CC1Cc2ccccc2N1C(=O)CN1C(=O)NC(C)(c2ccc3c(c2)OCCO3)C1=O (configuration not stated),"20.6 µM [falling, partial curve, poor fit]",
CCOC(=O)[C@H]1[C@H]2COc3ccccc3[C@@H]2N2C(=O)c3ccc(Cl)cc3NC(=O)[C@@]12C,"9.2 µM [falling, partial curve]",
CCOc1ccc2[nH]c3c(NCC(C)C)ncnc3c2c1,"3.98 µM [rising, full curve, poor fit]",
COc1cc(-c2nc(CN3CCCCC3CCNC(C)=O)c(C)o2)ccc1F (configuration not stated),"35.5 µM [rising, single point]",
C=CCn1c(=O)/c(=C2/Sc3cc(OC)ccc3N2C)s/c1=C1\C(=O)N(CC)C(=S)N1C,"35.5 µM [rising, single point]",
C/C(=N/NC(=O)c1ccccn1)c1ccc(O)cc1,"15.8 µM [falling, partial curve, poor fit]",
Cc1sc(NC(=O)c2ccccc2)c(C(=O)c2ccccc2)c1C,"16.4 µM [rising, partial curve]",
Cc1ccnc(NC(=O)c2ccc3c(c2)NC(=O)C(C)S3)c1 (configuration not stated),"1.46 µM [falling, full curve]",
O=C(Nc1ccc(NC(=O)C2CC2)nc1)c1ccccn1,"8.91 µM [falling, partial curve, poor fit]",
CS(=O)(=O)Nc1ccc(C(=O)Nc2ccc3c(c2)OCCO3)cc1,"8.2 µM [falling, partial curve, poor fit]",
Cc1ccccc1Cn1cnc2c(oc3ccccc32)c1=O,"15.8 µM [falling, single point]",
CC(C)=CCC[C@](C)(O[C@@H]1O[C@H](CO[C@@H]2OC[C@@H](O)[C@H](O)[C@H]2O)[C@@H](O)[C@H](O)[C@H]1O)C1CC[C@]2(C)C1[C@H](O)CC1[C@@]3(C)CC[C@H](O[C@@H]4O[C@H](CO)[C@@H](O)[C@H](O)[C@H]4O)C(C)(C)C3CC[C@]12C (some centres not stated),"16.4 µM [rising, single point]",
O=C1SC(SCc2ccccc2)=N/C1=C\c1ccc(C(=O)O)cc1,"12.6 µM [falling, partial curve]",
O=C1C2C3C=CC(C3)C2C(=O)N1CCN1CCN(S(=O)(=O)c2ccc3ccccc3c2)CC1 (configuration not stated),"1.84 µM [rising, partial curve, poor fit]",
CCOC(=O)c1c(C)nc2c(c1-c1ccc(OC)cc1)C(=O)CC(C)(C)C2,"25.1 µM [falling, single point]",
CSc1ccccc1NC(=O)c1cc(-c2ccc3c(c2)OCO3)on1,"0.251 µM [falling, full curve, poor fit]",
O=C(COc1ccc([N+](=O)[O-])cc1)NNC(=O)c1cccs1,"20 µM [rising, partial curve, poor fit]",

Compound,AC50 [1],AC50 [2]
CC1(C)CC(=O)C2=C(C1)OC(N)=C(C#N)C2c1ccc(OC(=O)N2CCOCC2)cc1 (configuration not stated),"6.31 µM [falling, single point]",
COc1ccccc1N1CCN(/N=C/C=C/c2ccccc2[N+](=O)[O-])CC1,"31.6 µM [falling, single point]",
CN(C(=O)c1ccco1)c1nc(-c2ccc(F)cc2)cs1,"1.41 µM [rising, partial curve, poor fit]",
C/C(=N\NC(=O)Cn1nc(C)c([N+](=O)[O-])c1C)c1ccco1,"10 µM [rising, single point]",
O=C(CN1C(=O)NC2(CCCC2)C1=O)NNC(=O)c1ccc(Br)cc1,"2.31 µM [rising, partial curve, poor fit]",
CC(=O)c1cnc(-c2ccccn2)s1,"10 µM [rising, partial curve, poor fit]",
Cc1ccc(O)c(NC(=O)COc2cc(C)ccc2C)c1,"0.82 µM [rising, full curve, poor fit]",
CN1CCNC(=O)C1CC(=O)N1CC=C(c2ccc(F)cc2)CC1 (configuration not stated),"35.5 µM [falling, single point]",
CCCSc1cc(=O)n(-c2ccccc2)nc1C(=O)O,"8.91 µM [falling, partial curve, poor fit]",
Cc1ccc(C(=O)N/C(=C\c2cccs2)C(=O)NCC2CCCO2)cc1C (configuration not stated),"16.4 µM [rising, partial curve, poor fit]",
Cc1ccc(C(=O)NNC(=S)NC(=O)c2ccco2)cc1,"2.51 µM [falling, full curve, poor fit]",
CCOc1ccc(N2C(=O)CC(N(CCc3ccc(OC)c(OC)c3)C(=S)Nc3ccccc3)C2=O)cc1 (configuration not stated),"14.6 µM [falling, partial curve, poor fit]",
O=c1[nH]c2cc3c(cc2cc1CN(Cc1cccnc1)Cc1nnnn1Cc1ccco1)OCCO3,"23.1 µM [falling, partial curve, poor fit]",
COC(=O)c1sc(NC(C)=O)c(C(=O)OC)c1C,"4.61 µM [falling, full curve, poor fit]",
CCCCSc1nc(CCC)cc(=O)[nH]1,"0.517 µM [rising, partial curve, poor fit]",
O=C(CSc1nc(Nc2ccccc2)nc(N2CCOCC2)n1)Nc1cc(Cl)ccc1O,"11.2 µM [falling, partial curve]",
Cc1ccc(C)c(NC(=O)CN(C)S(=O)(=O)c2ccccc2)c1,"29.1 µM [falling, single point]",
Cn1nc(-c2ccc(C(=O)Nc3cccnc3)cc2)c2ccccc2c1=O,"6.51 µM [rising, single point]",
Fc1cccc(CNc2ncnc3ccc(-c4ccc5c(c4)OCO5)cc23)c1,"32.6 µM [falling, single point] and 23.1 µM [falling, single point]",
O=C1c2c(O)ccc(O)c2C(=O)c2c(NCCNCCO)ccc(NCCNCCO)c21,"23.1 µM [falling, partial curve]","3.26 µM [rising, partial curve, poor fit]"

Compound,AC50 [1],AC50 [2]
COc1ccc(C(=O)C2CCCN(C(=O)c3ccccc3C(C)=O)C2)cc1F (configuration not stated),"11.2 µM [falling, partial curve, poor fit]",
CCOP(=O)(OCC)C(NC(=O)Nc1ccc(Cl)cc1)C(=O)N(CC)CC (configuration not stated),"2.59 µM [rising, full curve]",
O=C(Nc1cccc2ncccc12)c1ccc(-c2ccc(Cl)cc2Cl)o1,"4.47 µM [falling, partial curve]",
COc1cc(C)nc(Oc2ccc(/C=N/O)cc2)n1,"15.8 µM [rising, single point]",
COc1ccc(C2CC(c3ccccc3)=NN2C(=O)COC(=O)c2cccc(S(=O)(=O)N(C)C)c2)cc1 (configuration not stated),"29.1 µM [rising, single point]",
CCOC(=O)C(C)(C)N(Cc1cccc(C)c1)S(=O)(=O)c1cccc([N+](=O)[O-])c1,,"25.9 µM [rising, partial curve, poor fit]"
Cc1cc2cc(CNC(=O)Nc3ccccc3)ccc2[nH]1,"6.31 µM [rising, full curve]",
O=C(COc1ccccc1C(=O)c1cnn(-c2ccccc2)c1)Nc1ccc2ccccc2c1,"1.84 µM [rising, partial curve, poor fit]",
CCCCn1c(=O)[nH]c(=O)c2c1nc(-c1ccc(OCC)cc1)n2CC,"2.82 µM [rising, single point]",
COc1ccc(OC)c(/C=C/c2c([N+](=O)[O-])c(=O)n(C)c(=O)n2C)c1,"17.8 µM [falling, partial curve, poor fit]",
c1coc(CNc2nc3nonc3nc2NCc2ccco2)c1,"23.1 µM [falling, single point]",
O=C(CNC(=O)c1ccco1)Nc1cccc(Cl)c1,"3.16 µM [rising, full curve, poor fit]",
CCOC(=O)c1nnn(-c2nonc2N)c1COc1cc(C)c(Cl)c(C)c1,"0.231 µM [falling, full curve, poor fit]",
CCC(=O)Nc1ccc(Cl)c(NC(=S)NC(=O)c2cc3ccccc3o2)c1,"1.64 µM [rising, partial curve]",
COCCCC1CCN(C(=O)C2CCC(=O)N(CCc3ccccc3)C2)CC1 (configuration not stated),"0.891 µM [rising, full curve]",
CN1CCC(=NNC(=O)CN(c2cccc([N+](=O)[O-])c2)S(=O)(=O)c2ccccc2)CC1,"35.5 µM [falling, single point]",
NC(=O)c1nsc(C(=O)N(c2ccccc2)C(C(=O)NC2CCCC2)c2ccncc2)c1N (configuration not stated),"3.55 µM [rising, single point]",
CCN(CC)S(=O)(=O)c1ccc2c(c1)c(=O)c(C(=O)NCCc1ccc(OC)c(OC)c1)cn2C,"11.2 µM [rising, partial curve, poor fit]","5.62 µM [falling, partial curve]"
O=C(Nc1cnc2ccccn2c1=O)c1ccc(F)cc1,"16.4 µM [falling, partial curve]",
COc1ccc(-n2nc3c(c2NC(=O)c2ccc(N4C(=O)CCC4=O)cc2)CSC3)cc1,"20 µM [rising, single point]",

# Fetched one by one from above, 4 records:
Compound,AC50 [1],AC50 [2]
O=C(CNC(=O)c1ccco1)Nc1cccc(Cl)c1,"3.16 µM [rising, full curve, poor fit]",
c1coc(CNc2nc3nonc3nc2NCc2ccco2)c1,"23.1 µM [falling, single point]",
COc1ccc(C2CC(c3ccccc3)=NN2C(=O)COC(=O)c2cccc(S(=O)(=O)N(C)C)c2)cc1 (configuration not stated),"29.1 µM [rising, single point]",
CCOC(=O)C(C)(C)N(Cc1cccc(C)c1)S(=O)(=O)c1cccc([N+](=O)[O-])c1,,"25.9 µM [rising, partial curve, poor fit]"
